Experimental data published in paper PMC8910849.
Results are given in words; binding and its absence hold for the method and conditions named. Binding seen in cells or lysates may run through a third protein. Some results given as binding are weak or reduced against the parent protein; the word gives no strength. For some assays here: Tags and fused reporters may be left off the sequences shown.

The chains behind the UniProt entries cited, without tags or fusion partners.
UniProt Q04206: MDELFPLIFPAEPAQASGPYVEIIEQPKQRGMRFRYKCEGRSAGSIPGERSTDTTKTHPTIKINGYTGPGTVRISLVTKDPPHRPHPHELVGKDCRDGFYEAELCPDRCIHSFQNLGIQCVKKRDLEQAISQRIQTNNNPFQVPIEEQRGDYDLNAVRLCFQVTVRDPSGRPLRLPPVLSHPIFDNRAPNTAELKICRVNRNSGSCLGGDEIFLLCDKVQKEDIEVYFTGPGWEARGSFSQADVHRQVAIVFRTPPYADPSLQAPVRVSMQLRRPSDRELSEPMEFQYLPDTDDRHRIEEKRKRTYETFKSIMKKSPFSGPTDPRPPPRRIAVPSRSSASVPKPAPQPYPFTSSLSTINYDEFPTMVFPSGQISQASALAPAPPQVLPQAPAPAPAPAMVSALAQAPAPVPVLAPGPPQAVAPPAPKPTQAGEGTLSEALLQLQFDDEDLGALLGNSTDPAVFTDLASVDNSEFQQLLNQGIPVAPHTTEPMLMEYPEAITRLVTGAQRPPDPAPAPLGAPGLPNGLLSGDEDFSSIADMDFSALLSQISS

Assays:
[1] = target: T1, Flag-tagged armadillo repeat-containing protein 4 (ARMC4)/outer dynein arm docking complex subunit 2 (ODAD2) (human) (UniProt Q5T2S8); assay: co-IP; HEK293 or HT29 cells overexpressing the Flag-tagged bait, treated or untreated with IL-1β for 1 h; lysis in 1% Triton X-100, 50 mM Tris-HCl pH 7.4, 150 mM NaCl, 1 mM EDTA; anti-Flag M2 affinity gel overnight at 4 °C; elution with Flag peptide; Western blot
T1 sequence: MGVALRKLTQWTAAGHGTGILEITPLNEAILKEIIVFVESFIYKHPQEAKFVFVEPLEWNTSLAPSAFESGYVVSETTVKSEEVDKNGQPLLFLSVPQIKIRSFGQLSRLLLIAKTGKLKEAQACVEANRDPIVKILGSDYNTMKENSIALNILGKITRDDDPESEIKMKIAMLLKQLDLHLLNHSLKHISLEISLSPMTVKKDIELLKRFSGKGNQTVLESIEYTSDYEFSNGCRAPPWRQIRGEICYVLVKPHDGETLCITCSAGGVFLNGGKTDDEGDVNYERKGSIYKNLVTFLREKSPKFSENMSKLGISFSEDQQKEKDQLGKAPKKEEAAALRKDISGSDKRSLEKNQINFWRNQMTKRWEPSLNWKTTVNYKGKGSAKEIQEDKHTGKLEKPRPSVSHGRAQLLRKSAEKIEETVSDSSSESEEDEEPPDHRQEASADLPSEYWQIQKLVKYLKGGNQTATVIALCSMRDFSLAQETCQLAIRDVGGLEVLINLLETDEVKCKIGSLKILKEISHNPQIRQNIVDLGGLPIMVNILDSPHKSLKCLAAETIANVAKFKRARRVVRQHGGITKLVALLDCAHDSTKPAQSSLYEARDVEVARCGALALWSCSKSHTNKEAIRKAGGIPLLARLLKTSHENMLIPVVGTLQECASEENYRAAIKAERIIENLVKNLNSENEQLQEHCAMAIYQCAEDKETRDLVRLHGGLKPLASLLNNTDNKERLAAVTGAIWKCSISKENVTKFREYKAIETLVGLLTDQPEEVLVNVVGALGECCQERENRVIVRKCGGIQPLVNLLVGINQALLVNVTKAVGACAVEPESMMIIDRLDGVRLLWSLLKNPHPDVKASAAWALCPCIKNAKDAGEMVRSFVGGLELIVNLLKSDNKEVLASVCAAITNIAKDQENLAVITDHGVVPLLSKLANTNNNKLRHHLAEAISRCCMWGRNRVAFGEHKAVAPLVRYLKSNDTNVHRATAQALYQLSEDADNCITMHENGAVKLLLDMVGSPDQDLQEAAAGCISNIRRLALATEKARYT

[2] = target: Flag-tagged p65 subunit of NF-κB (UniProt Q04206); assay: as above

Molecule | binding [1] | binding [2]
p65 subunit of NF-κB (RelA), endogenous (from UniProt Q04206 1-551) | binds | 
armadillo repeat-containing protein 4 (ARMC4), endogenous (protein, UniProt Q5T2S8 1-1044) MGVALRKLTQWTAAGHGTGILEITPLNEAILKEIIVFVESFIYKHPQEAKFVFVEPLEWNTSLAPSAFESGYVVSETTVKSEEVDKNGQPLLFLSVPQIKIRSFGQLSRLLLIAKTGKLKEAQACVEANRDPIVKILGSDYNTMKENSIALNILGKITRDDDPESEIKMKIAMLLKQLDLHLLNHSLKHISLEISLSPMTVKKDIELLKRFSGKGNQTVLESIEYTSDYEFSNGCRAPPWRQIRGEICYVLVKPHDGETLCITCSAGGVFLNGGKTDDEGDVNYERKGSIYKNLVTFLREKSPKFSENMSKLGISFSEDQQKEKDQLGKAPKKEEAAALRKDISGSDKRSLEKNQINFWRNQMTKRWEPSLNWKTTVNYKGKGSAKEIQEDKHTGKLEKPRPSVSHGRAQLLRKSAEKIEETVSDSSSESEEDEEPPDHRQEASADLPSEYWQIQKLVKYLKGGNQTATVIALCSMRDFSLAQETCQLAIRDVGGLEVLINLLETDEVKCKIGSLKILKEISHNPQIRQNIVDLGGLPIMVNILDSPHKSLKCLAAETIANVAKFKRARRVVRQHGGITKLVALLDCAHDSTKPAQSSLYEARDVEVARCGALALWSCSKSHTNKEAIRKAGGIPLLARLLKTSHENMLIPVVGTLQECASEENYRAAIKAERIIENLVKNLNSENEQLQEHCAMAIYQCAEDKETRDLVRLHGGLKPLASLLNNTDNKERLAAVTGAIWKCSISKENVTKFREYKAIETLVGLLTDQPEEVLVNVVGALGECCQERENRVIVRKCGGIQPLVNLLVGINQALLVNVTKAVGACAVEPESMMIIDRLDGVRLLWSLLKNPHPDVKASAAWALCPCIKNAKDAGEMVRSFVGGLELIVNLLKSDNKEVLASVCAAITNIAKDQENLAVITDHGVVPLLSKLANTNNNKLRHHLAEAISRCCMWGRNRVAFGEHKAVAPLVRYLKSNDTNVHRATAQALYQLSEDADNCITMHENGAVKLLLDMVGSPDQDLQEAAAGCISNIRRLALATEKARYT |  | binds
